Values from PubChem BioAssay AID504805 (Drosophila RNAi Screening Center, 2011)

Purpose: 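Knock-downs that cause poly(A) RNA to build up in the nucleus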 (primary screen)
Cells: Drosophila S2R+ cells
Knock-down reagent: long dsRNA against Drosophila genes, 0.25 µg dsRNA per well
Timing: 4 days
Detection: 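Microscope images of cells stained for poly(A) RNA with a fluorescent oligo-dT probe and for DNA, assessed visually, with a phenotype description given for each replicate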
This is not the whole library: the list holds selected reagents. 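Phenotypes are words from visual inspection of images, not measured scores.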 Names joined by + are all predicted targets of the reagent.

Gene	dsRNA	phenotype, replicate 1	phenotype, replicate 2
CG10359	DRSC08156	poly(A) RNA held back in the nucleus	
CR11700 (retired record)	DRSC17794	poly(A) RNA held back in the nucleus	poly(A) RNA held back in the nucleus
Idgf2 (Imaginal disc growth factor 2)	DRSC03350	poly(A) RNA held back in the nucleus	
CG32086	DRSC10586	poly(A) RNA held back in the nucleus	
Acsx1L (Acyl-CoA synthetase X1 L)	DRSC16014	poly(A) RNA held back in the nucleus	
Pink1 (PTEN-induced putative kinase 1)	DRSC18361	poly(A) RNA held back in the nucleus	
sens (senseless)	DRSC09263	poly(A) RNA held back in the nucleus	poly(A) RNA held back in the nucleus
CG18281	DRSC11742	poly(A) RNA held back in the nucleus	
wfs1 (wolfram syndrome 1)	DRSC15676	poly(A) RNA held back in the nucleus	
sbr (small bristles)	DRSC20368	poly(A) RNA held back in the nucleus	poly(A) RNA held back in the nucleus
Syt7 (Synaptotagmin 7)	DRSC17130	poly(A) RNA held back in the nucleus	
ZnT77C (Zinc transporter 77C)	DRSC11766	poly(A) RNA held back in the nucleus	
Rbm13 (RNA-binding motif protein 13)	DRSC17749	poly(A) RNA held back in the nucleus	
CG9624	DRSC16523	poly(A) RNA held back in the nucleus	
eIF2Bgamma (eukaryotic translation initiation factor 2B subunit gamma)	DRSC07100	poly(A) RNA held back in the nucleus	
Mnr (Membrane-bound Notch regulator)	DRSC20550	poly(A) RNA held back in the nucleus	
eIF5 (eukaryotic translation initiation factor 5)	DRSC20165	poly(A) RNA held back in the nucleus	
CG15147	DRSC02447	poly(A) RNA held back in the nucleus	
Uxs (UDP-xylose synthase)	DRSC10941	poly(A) RNA held back in the nucleus	
CG42493	DRSC05309	poly(A) RNA held back in the nucleus	
CG1136	DRSC08184	poly(A) RNA held back in the nucleus	
pros (prospero)	DRSC17032	poly(A) RNA held back in the nucleus	
cg (combgap)	DRSC07650	poly(A) RNA held back in the nucleus	poly(A) RNA held back in the nucleus
Wdr82 (WD repeat domain 82)	DRSC21723	poly(A) RNA held back in the nucleus	
Acp36DE (Accessory gland protein 36DE)	DRSC01860	poly(A) RNA held back in the nucleus	
CG8191	DRSC20091	poly(A) RNA held back in the nucleus	
CG6236	DRSC15999	poly(A) RNA held back in the nucleus	
Trl + CG42507	DRSC11308	poly(A) RNA held back in the nucleus	
Nup98-96 (Nucleoporin 98-96kD)	DRSC14210	poly(A) RNA held back in the nucleus	poly(A) RNA held back in the nucleus
Arl4 (ADP ribosylation factor-like 4)	DRSC17156	poly(A) RNA held back in the nucleus	
CG2310	DRSC15438	poly(A) RNA held back in the nucleus	
CG14641	DRSC12227	poly(A) RNA held back in the nucleus	poly(A) RNA held back in the nucleus
CG30334	DRSC05345	poly(A) RNA held back in the nucleus	
Ir7c (Ionotropic receptor 7c)	DRSC18007	poly(A) RNA held back in the nucleus	
CG34178 + CG34177	DRSC00351	poly(A) RNA held back in the nucleus	
RpL17 (Ribosomal protein L17)	DRSC18293	poly(A) RNA held back in the nucleus	
CG2736	DRSC04314	poly(A) RNA held back in the nucleus	
CG18558	DRSC21593	poly(A) RNA held back in the nucleus	
sona (sol narae)	DRSC04574	poly(A) RNA held back in the nucleus	poly(A) RNA held back in the nucleus
CG8850	DRSC07287	poly(A) RNA held back in the nucleus	
RpL13 (Ribosomal protein L13)	DRSC03416	poly(A) RNA held back in the nucleus	
E23 (Early gene at 23)	DRSC00425	poly(A) RNA held back in the nucleus	
ClpX (Caseinolytic protease chaperone subunit)	DRSC15592	poly(A) RNA held back in the nucleus	
nAChRalpha1 (nicotinic Acetylcholine Receptor alpha1)	DRSC13664	poly(A) RNA held back in the nucleus	
CG6686	DRSC02979	poly(A) RNA held back in the nucleus	
IscU (Iron-sulfur cluster assembly enzyme)	DRSC16572	poly(A) RNA held back in the nucleus	
Cpr35B (Cuticular protein 35B)	DRSC01949	poly(A) RNA held back in the nucleus	
grh (grainy head)	DRSC07625	poly(A) RNA held back in the nucleus	
CG34268	DRSC07874	poly(A) RNA held back in the nucleus	
CG30105	DRSC05668	poly(A) RNA held back in the nucleus	
Spx (Spliceosomal protein on the X)	DRSC18720	poly(A) RNA held back in the nucleus	
osk (oskar)	DRSC17023	poly(A) RNA held back in the nucleus	
nxf2 (nuclear RNA export factor 2)	DRSC10403	poly(A) RNA held back in the nucleus	
Eip93F (Ecdysone-induced protein 93F)	DRSC13527	poly(A) RNA held back in the nucleus	
Orct2 (Organic cation transporter 2)	DRSC14613	poly(A) RNA held back in the nucleus	
Proc (Proctolin)	DRSC03009	poly(A) RNA held back in the nucleus	
alpha4GT2 (alpha1,4-galactosyltransferase 2)	DRSC15905	poly(A) RNA held back in the nucleus	
tsr (twinstar)	DRSC04718	poly(A) RNA held back in the nucleus	
Taf4 (TBP-associated factor 4)	DRSC11297	poly(A) RNA held back in the nucleus	
bora (aurora borealis)	DRSC10744	poly(A) RNA held back in the nucleus	
emc (extra macrochaetae)	DRSC23238	poly(A) RNA held back in the nucleus	
RpL7A (Ribosomal protein L7A)	DRSC18709	poly(A) RNA held back in the nucleus	
CG40583 (retired record)	DRSC20938	poly(A) RNA held back in the nucleus	
Shal (Shaker cognate l)	DRSC09625	poly(A) RNA held back in the nucleus	
CG5618	DRSC11780	poly(A) RNA held back in the nucleus	
CG30414	DRSC04372	poly(A) RNA held back in the nucleus	
Lmpt (Limpet)	DRSC09450	poly(A) RNA held back in the nucleus	
Pef (Peflin)	DRSC06695	poly(A) RNA held back in the nucleus	
bab1 (bric a brac 1)	DRSC08379	poly(A) RNA held back in the nucleus	
CG5466	DRSC15808	poly(A) RNA held back in the nucleus	poly(A) RNA held back in the nucleus

Looked up above:
Value for Orct2 (Organic cation transporter 2) [DRSC14613] in “phenotype, replicate 1”: poly(A) RNA held back in the nucleus
CG2736 [DRSC04314], phenotype, replicate 1: poly(A) RNA held back in the nucleus
For “phenotype, replicate 1”, sbr (small bristles) [DRSC20368] shows poly(A) RNA held back in the nucleus
For “phenotype, replicate 1”, wfs1 (wolfram syndrome 1) [DRSC15676] shows poly(A) RNA held back in the nucleus
Value of RpL13 (Ribosomal protein L13) [DRSC03416] in “phenotype, replicate 1”: poly(A) RNA held back in the nucleus
Value of CG5466 [DRSC15808] under “phenotype, replicate 1”: poly(A) RNA held back in the nucleus

Continued:
Gene	dsRNA	phenotype, replicate 1	phenotype, replicate 2
kni (knirps)	DRSC23093	poly(A) RNA held back in the nucleus	
beag	DRSC15296	poly(A) RNA held back in the nucleus	
CG12054	DRSC14467	poly(A) RNA held back in the nucleus	
RpL7 (Ribosomal protein L7)	DRSC03417	poly(A) RNA held back in the nucleus	poly(A) RNA held back in the nucleus
CG31038	DRSC16327	poly(A) RNA held back in the nucleus	
MTF-1 (Metal response element-binding Transcription Factor-1)	DRSC11217	poly(A) RNA held back in the nucleus	
Hrd3 (HMG-coA reductase degradation 3)	DRSC14156	poly(A) RNA held back in the nucleus	
CG15480	DRSC02490	poly(A) RNA held back in the nucleus	
MAGE	DRSC12504	poly(A) RNA held back in the nucleus	poly(A) RNA held back in the nucleus
CG15358	DRSC00388	poly(A) RNA held back in the nucleus	
CG11977	DRSC14454	poly(A) RNA held back in the nucleus	
CG9514	DRSC20190	poly(A) RNA held back in the nucleus	
Pabp2	DRSC07501	poly(A) RNA held back in the nucleus	poly(A) RNA held back in the nucleus
bs (blistered)	DRSC04676	poly(A) RNA held back in the nucleus	
CG9801	DRSC16568	poly(A) RNA held back in the nucleus	
CG6661	DRSC10687	poly(A) RNA held back in the nucleus	
b6	DRSC18740	poly(A) RNA held back in the nucleus	
Atf3 (Activating transcription factor 3)	DRSC17225	poly(A) RNA held back in the nucleus	
crn (crooked neck)	DRSC18184	poly(A) RNA held back in the nucleus	
CG8461	DRSC16424	poly(A) RNA held back in the nucleus	
Usp15-31 (Ubiquitin specific protease 15/31)	DRSC04532	poly(A) RNA held back in the nucleus	
ZC3H3	DRSC10696	poly(A) RNA held back in the nucleus	poly(A) RNA held back in the nucleus
CG13516	DRSC04159	poly(A) RNA held back in the nucleus	
CG13151	DRSC06276	poly(A) RNA held back in the nucleus	
CG9784	DRSC20210	poly(A) RNA held back in the nucleus	
RpS16 (Ribosomal protein S16)	DRSC04442	poly(A) RNA held back in the nucleus	
Sumo (Small ubiquitin like modifier)	DRSC03611	poly(A) RNA held back in the nucleus	
RpLP2 (Ribosomal protein LP2)	DRSC07539	poly(A) RNA held back in the nucleus	
CG17192	DRSC15186	poly(A) RNA held back in the nucleus	
mira (miranda)	DRSC16998	poly(A) RNA held back in the nucleus	
Rexo5 (RNA exonuclease 5)	DRSC10981	poly(A) RNA held back in the nucleus	
CG42750	DRSC02458	poly(A) RNA held back in the nucleus	
CG5608	DRSC15841	poly(A) RNA held back in the nucleus	
CG42676	DRSC08392	poly(A) RNA held back in the nucleus	
Nagk (N-acetylglucosamine kinase)	DRSC15994	poly(A) RNA held back in the nucleus	
